# Measurements as given in the supplement of paper PMC8728848.
# Some of the results follow.
# B1: Gs78B-bfa-542-29-542 (Bacteroides fragilis) (protein)
# chain: SEDINRNPLLPTKEDEKMDGVIYGAYLPNLEKSVIPIGTASESTEPVNRYQIGVNLAGDAWAGYMSPRDNKFNGSKNFTNYFMYENWVNYVYSFMVTDVYSPWMQIKRISQDEGTRNDEIYALAQIIKIAALHRTTDMFGPIPYSQVGKGSFKVAYDSQESVYRSFLKELEEAVQTLDDYSNKSKEVLPAFDIVYNGDVNKWMRFANSLMLRLAIRVRFADAGLAKEYAEKAVKHPAGLINSKELAAQMGKGAGLQMKNPLKVINEEYNDTRMGATIYSYLAGYNDARAAVYFVKNNGFKAVRCGIAKSGDAYNGFTRPNVHEDDPLYWMKASEVCFLKAEGALAGFDMGGSAGDFYNAGIRMSFSENGLDNSSAETYLKDSTRKPANYTDTSNGELSANAPSSITIRWENGATEEEKLERIITQKYLAIFPNGQEAWTEWRRTGYPRQIVVAENKTNSAVLIGNGYDLGGVRRLPYPRTEYEQNGENLHNAISQYLGGVDNAATKVWWDKKSK
# Assays:
# Test in all cases: glycan array binding signal (z-score within array); higher = stronger binding
# Conditions in all cases: glycan notation: IUPAC condensed, linker removed
# [1] = target: Man(a1-3)[Man(a1-6)]Man(a1-6)[Man(a1-3)]Man
# Method in brief: (§1)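 Glycan array data came from 3228 arrays in the Consortium for Functional Glycomics database, and only arrays with an available protein sequence were kept. Glycan names were put into IUPAC-condensed notation, and columns mapping to the same glycan were averaged. The binding signal is a within-array Z-score, averaged across arrays of one protein sequence run at different concentrations or buffers and across linkers. A negative Z-score can be read as non-binding.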
# [2] = target: Man(a1-3)[Man(a1-6)]Man(a1-6)[Man(a1-3)]Man(b1-4)GlcNAc(b1-4)GlcNAc
# Method in brief: as §1
# [3] = target: Man(a1-3)[Man(a1-6)]Man(b1-4)GlcNAc(b1-4)GlcNAc
# Method in brief: as §1
# [4] = target: Man(a1-3)[Man(a1-6)]Man(b1-4)GlcNAc(b1-4)[Fuc(a1-6)]GlcNAc
# Method in brief: as §1
# Man(a1-6)Man = target: Man(a1-6)Man
# Method in brief: as §1
# Man(b1-4)GlcNAc = target: Man(b1-4)GlcNAc
# Method in brief: as §1
# MurNAc(b1-4)GlcNAc = target: MurNAc(b1-4)GlcNAc
# Method in brief: as §1
# Neu5Ac(a2-3)Gal = target: Neu5Ac(a2-3)Gal
# Method in brief: as §1
# [5] = target: Neu5Ac(a2-3)Gal(b1-3)GalNAc
# Method in brief: as §1
# [6] = target: Neu5Ac(a2-3)Gal(b1-3)GalNAc(b1-3)Gal(a1-4)Gal(b1-4)Glc
# Method in brief: as §1
# [7] = target: Neu5Ac(a2-3)Gal(b1-3)GalNAc(b1-4)[Neu5Ac(a2-3)]Gal(b1-4)Glc
# Method in brief: as §1
# [8] = target: Neu5Ac(a2-3)Gal(b1-3)GalNAc(b1-4)[Neu5Ac(a2-8)Neu5Ac(a2-3)]Gal(b1-4)Glc
# Method in brief: as §1
# [9] = target: Neu5Ac(a2-3)Gal(b1-3)GalNAc6S
# Method in brief: as §1
# [10] = target: Neu5Ac(a2-3)Gal(b1-3)GlcNAc
# Method in brief: as §1
# [11] = target: Neu5Ac(a2-3)Gal(b1-3)GlcNAc(b1-2)Man
# Method in brief: as §1
# [12] = target: Neu5Ac(a2-3)Gal(b1-3)GlcNAc(b1-2)Man(a1-3)[GlcNAc(b1-4)][Neu5Ac(a2-3)Gal(b1-3)GlcNAc(b1-2)Man(a1-6)]Man(b1-4)GlcNAc(b1-4)GlcNAc
# Method in brief: as §1
# [13] = target: Neu5Ac(a2-3)Gal(b1-3)GlcNAc(b1-2)Man(a1-3)[Neu5Ac(a2-3)Gal(b1-3)GlcNAc(b1-2)Man(a1-6)]Man(b1-4)GlcNAc(b1-4)GlcNAc
# Method in brief: as §1
# [14] = target: Neu5Ac(a2-3)Gal(b1-3)GlcNAc(b1-3)Gal(b1-3)GlcNAc
# Method in brief: as §1
# [15] = target: Neu5Ac(a2-3)Gal(b1-3)GlcNAc(b1-3)Gal(b1-4)GlcNAc
# Method in brief: as §1
# [16] = target: Neu5Ac(a2-3)Gal(b1-3)GlcNAc(b1-3)GalNAc
# Method in brief: as §1
# [17] = target: Neu5Ac(a2-3)Gal(b1-3)GlcNAc(b1-4)Gal(b1-4)Glc
# Method in brief: as §1
# [18] = target: Neu5Ac(a2-3)Gal(b1-3)GlcNAc(b1-6)GalNAc
# Method in brief: as §1
# [19] = target: Neu5Ac(a2-3)Gal(b1-3)GlcNAc6S
# Method in brief: as §1
# [20] = target: Neu5Ac(a2-3)Gal(b1-3)[Fuc(a1-4)]GlcNAc
# Method in brief: as §1
# [21] = target: Neu5Ac(a2-3)Gal(b1-3)[Fuc(a1-4)]GlcNAc(b1-3)Gal(b1-3)[Fuc(a1-4)]GlcNAc
# Method in brief: as §1
# [22] = target: Neu5Ac(a2-3)Gal(b1-3)[Fuc(a1-4)]GlcNAc(b1-3)Gal(b1-4)[Fuc(a1-3)]GlcNAc
# Method in brief: as §1
# [23] = target: Neu5Ac(a2-3)Gal(b1-3)[GlcNAc(b1-6)]GalNAc
# Method in brief: as §1
# [24] = target: Neu5Ac(a2-3)Gal(b1-3)[Neu5Ac(a2-6)]GalNAc
# Method in brief: as §1
# [25] = target: Neu5Ac(a2-3)Gal(b1-3)[Neu5Ac(a2-6)]GlcNAc(b1-3)[Fuc(a1-3)[Gal(b1-4)]GlcNAc(b1-6)]Gal(b1-4)Glc
# Method in brief: as §1
# [26] = target: Neu5Ac(a2-3)Gal(b1-3)]Neu5Ac(a2-3)Gal(b1-4)]GlcNAc
# Method in brief: as §1
# Neu5Ac(a2-3)Gal(b1-4)Glc = target: Neu5Ac(a2-3)Gal(b1-4)Glc
# Method in brief: as §1
# [27] = target: Neu5Ac(a2-3)Gal(b1-4)GlcNAc
# Method in brief: as §1
# [28] = target: Neu5Ac(a2-3)Gal(b1-4)GlcNAc(b1-2)Man
# Method in brief: as §1
# [29] = target: Neu5Ac(a2-3)Gal(b1-4)GlcNAc(b1-2)Man(a1-3)[GlcNAc(b1-4)][Neu5Ac(a2-3)Gal(b1-4)GlcNAc(b1-2)Man(a1-6)]Man(b1-4)GlcNAc(b1-4)GlcNAc
# Method in brief: as §1
# [30] = target: Neu5Ac(a2-3)Gal(b1-4)GlcNAc(b1-2)Man(a1-3)[Neu5Ac(a2-3)Gal(b1-4)GlcNAc(b1-2)Man(a1-6)]Man(b1-4)GlcNAc(b1-4)GlcNAc
# Method in brief: as §1
# [31] = target: Neu5Ac(a2-3)Gal(b1-4)GlcNAc(b1-2)Man(a1-3)[Neu5Ac(a2-3)Gal(b1-4)GlcNAc(b1-2)Man(a1-6)]Man(b1-4)GlcNAc(b1-4)[Fuc(a1-6)]GlcNAc
# Method in brief: as §1
# [32] = target: Neu5Ac(a2-3)Gal(b1-4)GlcNAc(b1-2)Man(a1-3)[Neu5Ac(a2-6)Gal(b1-4)GlcNAc(b1-2)Man(a1-6)]Man(b1-4)GlcNAc(b1-4)GlcNAc
# Method in brief: as §1
# [33] = target: Neu5Ac(a2-3)Gal(b1-4)GlcNAc(b1-2)[Neu5Ac(a2-3)Gal(b1-4)GlcNAc(b1-4)]Man(a1-3)[GlcNAc(b1-4)][Neu5Ac(a2-3)Gal(b1-4)GlcNAc(b1-2)[Neu5Ac(a2-3)Gal(b1-4)GlcNAc(b1-6)]Man(a1-6)]Man(b1-4)GlcNAc(b1-4)GlcNAc
# Method in brief: as §1
binder,measurement,setting,value
B1,glycan array binding signal (z-score),[1],-0.801
same,glycan array binding signal (z-score),[2],1.14
same,glycan array binding signal (z-score),[3],-0.84
same,glycan array binding signal (z-score),[4],-0.82
same,glycan array binding signal (z-score),Man(a1-6)Man,-0.431
same,glycan array binding signal (z-score),Man(b1-4)GlcNAc,-0.607
same,glycan array binding signal (z-score),MurNAc(b1-4)GlcNAc,-0.834
same,glycan array binding signal (z-score),Neu5Ac(a2-3)Gal,-0.842
same,glycan array binding signal (z-score),[5],-0.752
same,glycan array binding signal (z-score),[6],-0.826
same,glycan array binding signal (z-score),[7],-0.801
same,glycan array binding signal (z-score),[8],-0.628
same,glycan array binding signal (z-score),[9],-0.818
same,glycan array binding signal (z-score),[10],-0.067
same,glycan array binding signal (z-score),[11],1.22
same,glycan array binding signal (z-score),[12],-0.557
same,glycan array binding signal (z-score),[13],0.433
same,glycan array binding signal (z-score),[14],-0.818
same,glycan array binding signal (z-score),[15],-0.836
same,glycan array binding signal (z-score),[16],-0.663
same,glycan array binding signal (z-score),[17],-0.459
same,glycan array binding signal (z-score),[18],0.6
same,glycan array binding signal (z-score),[19],-0.829
same,glycan array binding signal (z-score),[20],-0.793
same,glycan array binding signal (z-score),[21],-0.5
same,glycan array binding signal (z-score),[22],-0.537
same,glycan array binding signal (z-score),[23],-0.829
same,glycan array binding signal (z-score),[24],-0.769
same,glycan array binding signal (z-score),[25],-0.712
same,glycan array binding signal (z-score),[26],-0.814
same,glycan array binding signal (z-score),Neu5Ac(a2-3)Gal(b1-4)Glc,-0.505
same,glycan array binding signal (z-score),[27],-0.81
same,glycan array binding signal (z-score),[28],2.92
same,glycan array binding signal (z-score),[29],-0.78
same,glycan array binding signal (z-score),[30],-0.787
same,glycan array binding signal (z-score),[31],-0.844
same,glycan array binding signal (z-score),[32],0.41
same,glycan array binding signal (z-score),[33],-0.849

# Three neighbouring entries already listed, quoted:
binder,measurement,setting,value
B1,glycan array binding signal (z-score),[31],-0.844
same,glycan array binding signal (z-score),[32],0.41
same,glycan array binding signal (z-score),[33],-0.849
